Assay results from paper PMC11959276.
These are yes or no findings as the source states them, for the method shown. Binding seen in cells or lysates may run through a third protein. Some binding calls cover weakened binding; strength is not graded here.

Chains of the proteins cited; added tags and fusions are not shown. Residues count along the entry.
UniProt P27773, residues 25-505: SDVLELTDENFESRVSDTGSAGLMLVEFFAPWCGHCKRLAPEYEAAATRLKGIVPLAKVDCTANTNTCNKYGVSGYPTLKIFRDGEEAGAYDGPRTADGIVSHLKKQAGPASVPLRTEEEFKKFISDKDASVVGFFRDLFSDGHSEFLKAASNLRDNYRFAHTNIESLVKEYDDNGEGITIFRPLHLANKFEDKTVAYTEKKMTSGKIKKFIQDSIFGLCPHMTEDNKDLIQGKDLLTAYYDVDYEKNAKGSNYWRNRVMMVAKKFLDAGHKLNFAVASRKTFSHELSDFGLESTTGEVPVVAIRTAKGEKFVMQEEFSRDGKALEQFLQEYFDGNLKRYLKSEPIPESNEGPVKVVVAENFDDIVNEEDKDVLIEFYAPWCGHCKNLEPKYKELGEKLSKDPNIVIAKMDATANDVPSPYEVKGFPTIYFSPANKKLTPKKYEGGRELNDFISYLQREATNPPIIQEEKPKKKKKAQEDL

Target: human Tapasin isoform 1 (human) (UniProt O15533)
Assay: co-IP; 1% NP-40 lysate of Tapasin-/- fibroblasts expressing human Tapasin isoforms or vector alone; Tapasin precipitated with PaSta.1 anti-human Tapasin monoclonal and Protein G sepharose overnight; blot with rabbit anti-ERp57

Substance: mouse ERp57 (from UniProt P27773 25-505)
- binding: binds
